Laboratory results from US20210179940A1, “WIDE TEMPERATURE RANGE AND HIGH PHOTOCHEMICAL STABILITY SMECTIC LIQUID CRYSTAL COMPOSITIONS WITH A MONOLAYER SMECTIC A PHASE (SMA1), METHOD OF OBTAINING THEREOF AND DEVICES UTILIZING THEREOF” (WOJSKOWA AKADEMIA TECHNICZNA, priority 2017, published 2021).
Several values for one entry are separate records, joined by “and”; a condition that tells them apart may be missing. Identical values can stand only once. For at least one compound, name, drawing or mass did not settle the structure.

Assays:
Type in all cases: physicochemical
[1] = resistivity of fluorobenzene solutions of ionic compounds (bridge method); conditions: for resistivity 10 kHz / resistivity 50 Hz: solution in C6H5F, 25° C.
Procedure: The resistivity of the solution was measured by the bridge method using a Wyne Kerr Precision Component Analyzer 6425 and the measuring cells with electrodes of active area of 12.7 mm×12.7 mm. The electrodes were made of ITO. No orienting layers were deposited. The cell formed with two substrates with electrodes mentioned above was filled with the solution by capillary forces. The gap between electrodes was approx. 14.6 μm.

[2] = conductivity of doped smectic A composition 18 in 15 μm cell; conditions: RT; for conductivity σ: 100 Hz
Text: The glass cells with a gap of 15 μm filled with the liquid crystal composition were used to measure conductivity and such a parameters of the DS effect as threshold voltage and saturation voltage. […] The orienting layer providing a homeotropic orientation of the molecular director of the smectic composition was obtained using a thin layer of SE1211 (by Nissan Chem.) polyimide, which was deposited on ITO electrodes with a spincoating method, then dried and cured. The testing cells were filled with the liquid crystals composition from the isotropic phase, and they were cooled to the room temperature (RT) and closed.
The components were carefully mixed and then heated to temperature of 90° C. to evaporate the solvent. Then heating was continued under lower pressure (at 0.2 mmHg) for the total removal of the solvent and the composition was carefully mixed by shaking it at the isotropic state. […]

[3] = conductivity of doped smectic A composition 21 in 15 μm cell
Text: The glass cells with a gap of 15 μm filled with the liquid crystal composition were used to measure conductivity and such a parameters of the DS effect as threshold voltage and saturation voltage. Transparent electrodes were formed from indium-tin oxide (ITO) of specific resistivity 100 Ohm/cm^2 and with surface 1.27×1.27 cm^2. The orienting layer providing a homeotropic orientation of the molecular director of the smectic composition was obtained using a thin layer of SE1211 (by Nissan Chem.) polyimide, which was deposited on ITO electrodes with a spincoating method, then dried and cured. The testing cells were filled with the liquid crystals composition from the isotropic phase, and they were cooled to the room temperature (RT) and closed.
In Table 6 the properties of the composition 21 doped with an amidinium salt or potassium complex of a crown ether are compared. The composition 21 has the phase sequence Cr-SmA1-N-Iso and the higher value of dielectric anisotropy than composition 18.

SMILES	resistivity 10 kHz [1]	resistivity 50 Hz [1]	resistivity of I.16b, times higher than that of the compound ([1]; solution in fluorobenzene)	conductivity σ ([2]; composition 18, dopant 8.78 · 10^−3 mol/kg, chloroform as solvent)	conductivity σ ([2]; composition 18, dopant 8.78 · 10^−3 mol/kg, prepared in fluorobenzene)	specific conductivity σ ([2]; composition 18, two kinds of ionic dopants, total 8.78·10^−3 mol/kg, f = 100 Hz)	specific conductivity σ ([3]; composition 21, 0.1 wt % dopant + 0.3 wt % ionic dye of formula 34, f = 100 Hz, RT)	specific conductivity σ ([3]; composition 21, 0.1 wt % dopant + 0.3 wt % stabilizer of formula 29, f = 100 Hz, RT)	specific conductivity σ ([3]; composition 21, dopant 0.3 wt % (6.58 · 10^−3 mol/kg) + 2 wt % dichroic dye AB4, RT)	specific conductivity σ ([3]; composition 21, dopant 6.58 · 10^−3 mol/kg, f = 100 Hz, RT)	conductivity σ ([2]; composition 18, dopant 6.58 · 10^−3 mol/kg, prepared in fluorobenzene)
CCCCCCCCCCCCCCCC[N+]1=C2CCCCCN2CCC1 [II.16b, 1-hexadecyl-1,8-diazabicyclo[5.4.0]undec-7-enium bromide]	6.7 · 10^5 Ohm · cm	7.8 · 10^5 Ohm · cm	80 times	1.2 · 10^−9 Ohm^−1cm^−1	1.1-1.3·10^−9 and 1.3 · 10^−9 Ohm^−1cm^−1	1.2 · 10^−9 Ohm^−1cm^−1	5.58 · 10^−9 Ohm^−1cm^−1	2.0 · 10^−9 Ohm^−1cm^−1	3.1 · 10^−8 Ohm^−1cm^−1	3.24 · 10^−9 Ohm^−1cm^−1	
CCCCCCCCCCCCCCCC[N+]1=C2CCCCCN2CCC1 [II.16d, 1-hexadecyl-1,8-diazabicyclo[5.4.0]undec-7-enium 1,1,1-trifluoromethanesulphonate]	7.8 · 10^5 Ohm · cm	8.7 · 10^5 Ohm · cm									6.84 · 10^−10 Ohm^−1cm^−1
